This test deals with His-tagged Sox2 recombinant protein (mouse) (UniProt P48432). In words: pull-down; His-tagged Sox2 from E. coli held on Ni-NTA beads; equalised 293T lysates with GST-Ddx56 or GST-Ddx56 ΔC-ter added, 4 h at 4 °C; western blot with anti-GST and anti-Sox2; only the target purified.

By UniProt entry, the sequences of proteins in these tests, tags left out.
UniProt P48432: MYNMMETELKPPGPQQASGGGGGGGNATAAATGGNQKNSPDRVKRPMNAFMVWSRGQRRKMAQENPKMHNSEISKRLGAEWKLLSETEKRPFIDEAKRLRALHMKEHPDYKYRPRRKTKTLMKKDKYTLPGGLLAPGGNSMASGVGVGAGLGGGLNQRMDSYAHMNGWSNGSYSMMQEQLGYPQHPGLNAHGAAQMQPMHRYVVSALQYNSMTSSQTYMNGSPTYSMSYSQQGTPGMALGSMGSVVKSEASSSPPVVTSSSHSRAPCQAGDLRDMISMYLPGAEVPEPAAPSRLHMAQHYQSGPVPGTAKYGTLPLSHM

One molecule from article PMC7376950 can be followed below.

These are yes or no findings as the source states them, for the method shown. Binding seen in cells or lysates may run through a third protein. Some results given as binding are weak or reduced against the parent protein; the word gives no strength. Sequences can lack the tags named with a protein.

B1: Ddx56-GST (full-length mouse DEAD-box helicase 56, GST-tagged) (protein, UniProt Q9D0R4 1-546)
chain: MEDQEALGFEHMGLDPRLLQAVTDLGWSRPTLIQEKAIPLALEGKDLLARARTGSGKTAAYAIPMLQSLLHKKATGPVMEQAVRGLVLVPTKELARQAQAMIQQLAAYCARDVRVANVSAAEDSASQRAVLMEKPDVVVGTPSRVLSHLQQNTLKLRDSLELLVVDEADLLFSFGFEDELKSLLCHLPRIYQAFLMSATFNEDVQTLKELVLHNPVTLKLQESQLPGPDQLQQFQVVCETEEDKFLLLYALLKLSLIRGKALLFVNTLERGYRLRLFLEQFSIPSCVLNGELPLRSRCHIISQFNQGLYDCVIATDAEILGPQVKGKRRGRGSKGNKASDPESGVARGIDFHHVSAVLNFDLPPTAEAYVHRAGRTARANNPGIVLTFVLPAEQPFLGKIEDLLSGEGEAPILLPYQFQMEEIESFRYRCRDAMRSVTKQAIREARLKEIKEELLHSEKLKTYFEDNPRDLQLLRHDLPLHPAVVKPHLGHVPDYLVPAALRGLVHPRKKRRKVPFSRKAKKVKAQNPLRDFKHRGKKPKPAAKPS
B1: the binding entry was “binds”.
